Assay results from patent US10457662B2, “Substituted amides for treating and preventing cancer” (The Regents of the University of Michigan, priority 2015, dated 2019).

Test system: MiaPaCa-2
Experiment: MTT assay, MiaPaCa-2
Details: Homo sapiens, MIA PaCa-2, read-out: IC50 in MiaPaCa-2
Description: Cells were treated with QN523 for 1, 4, 8, 24, 48, 72 h and left in culture in fresh media. MTT assay was performed 72 h after initiation of treatment. Data points represent Mean±SD from three independent experiments.
Experiments conducted during the course of developing embodiments for the present invention involved performance of a phenotypic screen of a library of 20,000 small-molecules representing five million compounds. […] Subsequently, a lead optimization campaign was performed to synthesize a series of close analogs. Initially, the 50 analogs were tested in three pancreatic cancer cell lines using MTT assay (Table 1).
For in vitro studies, compounds were dissolved in DMSO at 10 mM as stock solutions and stored at −20° C. For in vivo studies, QN523 was dissolved in a vehicle containing 5% DMSO, 35% propylene glycol and 60% saline, and administered at 100 uL through intraperitoneal injections.

| SMILES | IC50 |
| --- | --- |
| CSc1ccc2c(c1)N(CCC1CCCCN1C)c1ccccc1S2 (centres unmarked) [thioridazine, reference compound] | 12 µM |
| CN1CCN(CCCN2c3ccccc3Sc3ccc(Cl)cc32)CC1 [prochlorperazine] | 17 µM |
